The assay concerns the target 5-hydroxytryptamine receptor 2A (Homo sapiens, UniProt P28223). The class given is cell-based, NIH/3T3.

By UniProt entry, the sequences of proteins in these tests, tags left out.
UniProt P28223, whole entry: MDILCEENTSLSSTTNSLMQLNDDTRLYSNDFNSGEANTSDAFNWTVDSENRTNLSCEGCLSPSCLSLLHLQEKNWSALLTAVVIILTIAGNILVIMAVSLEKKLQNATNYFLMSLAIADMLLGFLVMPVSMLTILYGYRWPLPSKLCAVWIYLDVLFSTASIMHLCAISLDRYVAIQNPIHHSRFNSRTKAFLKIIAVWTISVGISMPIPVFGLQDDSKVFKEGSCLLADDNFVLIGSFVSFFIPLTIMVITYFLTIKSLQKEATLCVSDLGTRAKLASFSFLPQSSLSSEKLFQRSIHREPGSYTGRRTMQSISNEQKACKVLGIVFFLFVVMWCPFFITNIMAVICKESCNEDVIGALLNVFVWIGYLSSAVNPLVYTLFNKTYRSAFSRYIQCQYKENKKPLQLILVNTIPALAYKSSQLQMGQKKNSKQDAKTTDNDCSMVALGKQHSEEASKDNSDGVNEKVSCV

The source of these data is ChEMBL document CHEMBL3880399 (2004).

Each structure is given as a SMILES string. pEC50: −log10 of the molar value.

The pEC50 is −log10 of the EC50, conventionally taken in molar units. Compound `CCCN[C@H]1CCc2nc(N)sc2C1` [PRAMIPEXOLE] gave a pEC50 of 5.93.
